The values that follow come from PubChem BioAssay AID2685 (National Center for Advancing Translational Sciences (NCATS), 2010).

A short description of this experiment: qHTS Assay for Lipid Storage Modulators in Drosophila S3 Cells.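 For cell number change: cells counted by Cell Tracker Red CMTPX staining in the red channel.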 Conditions: BODIPY lipid droplet fluorescence, 18-24 h; for cell number change: measured here: cell count max response, cells fed with added oleic acid. A digest of the protocol: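 Drosophila S3 cells got compounds at several concentrations plus oleic acid (400 uM solution). Laser-scanning cytometry with 488 nm excitation read lipid droplets at 500-530 nm and cells at 575-640 nm. Percent activity was relative to 20 uM Triacsin C.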
On the technique in general: qHTS replaces the single test concentration by a dilution series.

Setting [1] is: measured here: cell number channel AC50, cells fed with added oleic acid.
Where [2] appears, read: measured here: lipid fluorescence (Fed channel) AC50, cells fed with added oleic acid.

Some of the results follow. Shown are side measurements of this screen, not its main read-out; they come without a call. Compounds called inactive in the main read-out are mostly missing here. Words in brackets tell the shape of the fitted curve; partial curves, single points and poor fits give uncertain potencies.

By AC50 is commonly meant the midpoint of the concentration-response curve, whichever way the signal moves. For `COC(=O)Cc1cc(=O)n2[nH]c(C)cc2n1`, the cell number change is -45.2%. Further, the AC50 under setting [1] was 0.116 µM [falling, full curve].

For the compound `CNC(=O)c1sc2nc(-c3ccc(OC)cc3)cn2c1C`, the cell number change was -65.2%. The AC50 under setting [1] was 29.1 µM [falling, single point]. Moreover, under setting [2], the AC50 was 18.4 µM [falling, partial curve].

Turning to `CCOc1cc(/C=N/Nc2nc(N3CCCC3)nc(N3CCCC3)n2)ccc1O`, the cell number change was -27.2%. Besides, the AC50 under setting [2] is 29.1 µM [falling, single point].

For the compound `Cc1ccc(OCC(=O)Nc2ccccc2C(=O)NC2CC2)cc1`, the cell number change is 10.7%. Besides, the AC50 under setting [2] is 1.84 µM [rising, partial curve, poor fit].

Regarding `CC(=O)N1CCc2cc(S(=O)(=O)N3CCOCC3)ccc21`, the cell number change is -34.4%. The AC50 under setting [1] was 29.1 µM [falling, single point]. The AC50 under setting [2] was 29.1 µM [falling, single point].

As for `Cc1cccc(C(=O)NCC(=O)OCC(=O)N2CCCCC2)c1`, the cell number change is -53.8%. In addition, the AC50 under setting [1] is 29.1 µM [falling, single point]. Under setting [2], the AC50 is 29.1 µM [falling, single point].

Regarding `Cc1ccc(-c2cccc(CN3CCN(C(C)C)C(CCO)C3)c2)o1` (stereo unspecified), the cell number change came to 6.02%. Under setting [2], the AC50 was 29.1 µM [rising, single point].

Consider `O=C(CCCCCn1c(=S)[nH]c2cc3c(cc2c1=O)OCO3)N1CCN(c2ccc(F)cc2)CC1`, for which the cell number change stood at 17%. Moreover, the AC50 under setting [2] is 6.51 µM [rising, single point].

As to `COc1ccc(NC(=O)CN(C)C(=O)c2cn(-c3ccccc3)nc2-c2cccnc2)cc1`, the cell number change was -0.362%. The AC50 under setting [2] is 0.082 µM [rising, full curve, poor fit].

Turning to `CCC[N+](C)(C)C(C)C(OC(C)=O)c1ccccc1` (stereo unspecified), the cell number change was 32.4%. In addition, the concentration at half-maximal activity (AC50) under setting [1] is 29.1 µM [rising, single point].

As to `CC(C)C(=O)O/N=C(\N)c1ccccn1`, the cell number change stood at 33.1%. Further, the AC50 under setting [1] was 29.1 µM [rising, single point].

For `Cc1nnc(SCC(=O)c2ccc(Cl)cc2)n(N)c1=O`, the cell number change is 10.1%. Besides, the AC50 under setting [2] was 0.291 µM [rising, full curve, poor fit].

With `O=C(Nc1cc(Cl)ccc1O)C1CC(c2c(F)cccc2Cl)=NO1` (stereo unspecified), the cell number change was -6.99%. For the same compound, under setting [2], the AC50 is 16.4 µM [falling, single point].

Take `O=C(CSc1nc2ccc(NC(=O)c3ccccc3C(=O)O)cc2s1)Nc1ccc(F)c([N+](=O)[O-])c1`: the cell number change is -38.1%. In addition, the AC50 under setting [1] was 20.6 µM [falling, partial curve, poor fit].

Take `COC(=O)c1cc(OC)c(OC)cc1NC(=O)c1cccc(OC)c1OC`: the cell number change was -2.77%. Moreover, the AC50 under setting [2] was 0.146 µM [falling, full curve].

Regarding `O=C(CN1C(=O)S/C(=C\c2ccccn2)C1=O)Nc1ccc(F)cc1`, the cell number change turned out to be 6.52%. Under setting [2], the AC50 was 6.51 µM [rising, single point].

Turning to `CCCCCCNC(=O)C(C#N)c1nc2ccccc2nc1N1CCCC1` (stereo unspecified), the cell number change is 20.8%.

`CC(OC1=CC(=O)CCC1)C(=O)c1ccccc1` (stereo unspecified): the cell number change was -8.86%.

With `OCCC1CN(C2CCC2)CCN1Cc1ccc(F)c(F)c1` (stereo unspecified), the cell number change is -11.5%. For the same compound, the AC50 under setting [2] is 29.1 µM [rising, single point].

In the case of `CCC(=O)Nc1ccc(C(=O)CN2C(=O)NC3(CCCCCC3)C2=O)cc1`, the cell number change came out at 22.8%. In addition, the AC50 under setting [2] was 1.64 µM [rising, partial curve].

In the case of `CCCCN1CNC(=S)N(c2cc(C)ccc2C)C1`, the cell number change is -57.9%. Besides, under setting [1], the AC50 was 29.1 µM [falling, single point]. For the same compound, the AC50 under setting [2] is 29.1 µM [falling, single point].

For `CCOc1ccc(NC(=O)CCC(=O)OC)cc1`, the cell number change came out at 0.703%. Further, the AC50 under setting [1] was 2.31 µM [falling, single point]. Under setting [2], the AC50 is 6.51 µM [falling, single point].

In the case of `O=C(c1ccc2c(c1)OCCO2)N1CCN(Cc2ccccc2)CC1`, the cell number change worked out at 7.78%. Further, the AC50 under setting [2] is 0.184 µM [rising, full curve].

For `COc1cc(OC)cc(C(=O)NCCCNC(=O)c2cccnc2)c1`, the cell number change was -10.5%.

As to `CCOc1ccc(S(=O)(=O)N2Cc3ccccc3CC2C(=O)NCCCn2ccnc2)cc1` (stereo unspecified), the cell number change is -18.1%. Besides, the AC50 under setting [2] was 0.651 µM [rising, full curve].

With `Cc1cccc(C)c1OCc1cc(C(=O)N2CCC(c3ccccc3)CC2)no1`, the cell number change came out at 31.8%. In addition, the concentration at half-maximal activity (AC50) under setting [2] was 18.4 µM [rising, single point].

`COC(=O)N/N=C/c1cn(Cc2c(Cl)cccc2Cl)c2ccccc12`: the cell number change was -2.52%. Also, the AC50 under setting [2] was 13 µM [rising, partial curve].

On to `CC(=O)c1c(C)[nH]c(C(=O)OCC(=O)c2c(N)n(CC(C)C)c(=O)n(C)c2=O)c1C`, for which the cell number change is -25.4%. Further, the AC50 under setting [2] was 0.326 µM [falling, partial curve, poor fit].

Take `O=[N+]([O-])c1ccc(NCc2ccccc2)nc1`: the cell number change was -13.3%. Besides, under setting [1], the AC50 was 0.082 µM [falling, full curve, poor fit].

Turning to `Oc1ccc(-c2nnc(SCc3ccccc3)o2)cc1`, the cell number change amounted to 43.5%. Further, under setting [2], the AC50 is 29.1 µM [rising, partial curve, poor fit].

On to `O=C(Nc1ccc(N2CCCCC2)cc1)c1cc(S(=O)(=O)N2CCOCC2)ccc1F`, for which, under setting [2], the AC50 is 13 µM [falling, partial curve].

On to `Cc1ccc(-c2[nH]nc(N)c2N=Nc2ccccc2C)cc1`, for which the cell number change was -40.6%. Also, under setting [1], the AC50 was 20.6 µM [falling, single point]. In addition, under setting [2], the AC50 was 23.1 µM [falling, single point].

For `O=C(c1cc([N+](=O)[O-])ccc1N1CCOCC1)N1CCOCC1`, the cell number change is -3.25%. Further, the AC50 under setting [2] is 0.82 µM [falling, single point].

On to `Cc1sc2nc(SCC(=O)NCc3ccco3)n(Cc3ccccc3)c(=O)c2c1C`, for which the cell number change is -28.5%.

Regarding `CC(=O)Nc1coc2ccc(Br)cc12`, the cell number change turned out to be 18.1%. The AC50 under setting [1] was 0.366 µM [rising, full curve, poor fit].

As for `O=C(C[n+]1ccccc1)N/N=C/c1cc(Br)cc(Br)c1O`, the cell number change is -26.1%. Further, the AC50 under setting [2] is 23.1 µM [falling, single point].

As to `CCN(CC(=O)NCc1ccc(Cl)cc1)C(=O)CSc1cc(C)ccc1C`, the cell number change worked out at 111%. Further, under setting [1], the AC50 is 14.6 µM [rising, partial curve].

Consider `O=C(Nc1ccc2c(c1)OCCO2)C1CC(c2ccccc2Cl)=NO1` (stereo unspecified), for which the cell number change was -2.13%. The half-maximal activity concentration (AC50) under setting [2] was 0.82 µM [falling, full curve].

As for `CCC(C(=O)N1CCOCC1)n1nc(C)n2c(cc3cc(C)ccc32)c1=O` (stereo unspecified), the cell number change is -11.1%. The concentration at half-maximal activity (AC50) under setting [2] was 29.1 µM [falling, single point].

As for `CC(=O)c1ccc(N2Cc3ccccc3/C2=N\C(=O)Nc2ccc(Cl)cc2)cc1`, the cell number change is 14.5%.

`COc1ccc(NC(=O)c2ccc(CNS(=O)(=O)c3cccc(OC)c3)cc2)cc1`: the cell number change was -18.1%.

On to `COc1cccc(NC(=O)CN(C)C(=O)c2cc3c(s2)CCC(C)C3)c1` (stereo unspecified), for which the cell number change came out at 38.3%. For the same compound, the AC50 under setting [1] was 20.6 µM [rising, single point]. In addition, the AC50 under setting [2] is 18.4 µM [rising, single point].

Take `COc1ccc(NS(=O)(=O)c2ccc(N3CCOCC3)c(NC(=O)C(C)C)c2)cc1`: the cell number change was -18.5%. The AC50 under setting [1] was 0.651 µM [rising, single point]. The AC50 under setting [2] is 0.58 µM [rising, partial curve, poor fit].

For the compound `C/C(=N\NC(=O)c1ccccc1O)c1cccs1`, the AC50 under setting [1] is 0.651 µM [rising, single point].

As for `CCCC(C)NC(=O)Cc1ccc(S(=O)(=O)N2CCOCC2)s1` (stereo unspecified), the cell number change was determined as 19.5%. For the same compound, the AC50 under setting [2] was 6.51 µM [falling, single point].

As for `COc1ccc(NC(C)=O)c2nc(C)c(C)nc12`, the cell number change was -8.48%. Also, the AC50 under setting [2] was 2.06 µM [rising, single point].

With `CN1C(=O)C(C)(C)N(C(=O)c2cccc([N+](=O)[O-])c2)c2ccccc21`, the cell number change was -2.03%. Also, under setting [2], the AC50 is 6.51 µM [falling, single point].

With `Cc1sc2nc(CSC(C)C(=O)Nc3ccc(Cl)cn3)[nH]c(=O)c2c1C` (stereo unspecified), the cell number change was -3.89%.

Take `Cc1cccc(NC(=O)CCS(=O)(=O)c2cc3c(cc2Cl)NC(=O)CO3)c1`: the cell number change was -21.2%. For the same compound, the AC50 under setting [2] is 16.4 µM [rising, single point].

Consider `Cc1cscn1`, for which the cell number change came to 15%. The AC50 under setting [2] was 0.103 µM [falling, single point].

For `O=C(CN(C(=O)C1CSC(=O)C1)c1cccc(F)c1)NC1CCCC1` (stereo unspecified), the cell number change was -38%.

As for `CCN(CC)c1nc(Nc2ccc(Cl)cc2)nc(OCC#N)n1`, the cell number change turned out to be 33.4%. In addition, the AC50 under setting [1] was 5.8 µM [rising, partial curve, poor fit].

Regarding `N/C(CCN1CCCCC1)=N/O`, the cell number change is -9.63%. Further, the AC50 under setting [2] is 29.1 µM [falling, single point].

Take `Cc1cc2c(c(=O)o1)C(c1ccc([N+](=O)[O-])o1)C(C#N)=C(N)O2` (stereo unspecified): the cell number change came out at 20.7%.

Turning to `CCOc1ccccc1C(=O)NCc1ccc2c(c1)OCO2`, the cell number change came to 12%. For the same compound, under setting [2], the AC50 was 0.0259 µM [rising, full curve, poor fit].

For the compound `COc1ccc(C(=O)Oc2c(C)occc2=O)cc1OC`, the cell number change turned out to be 15.5%. The AC50 under setting [2] is 14.6 µM [rising, single point].

As to `O=C(NCc1ccc2c(c1)OCO2)C12CN(Cc3ccccc3)CC1C(c1cccc([N+](=O)[O-])c1)=NO2` (stereo unspecified), the AC50 under setting [1] is 0.517 µM [rising, single point].

In the case of `O=C(Nc1cccc(C(F)(F)F)c1)c1ccco1`, the AC50 under setting [2] is 5.17 µM [falling, partial curve].

As to `Cc1ccc2c(Cl)c(C(=O)Nc3cccnc3)sc2c1`, the cell number change is -19.6%. Also, the AC50 under setting [2] was 18.4 µM [falling, single point].

On to `Cc1ccccc1C(=O)Oc1cc(N)n(S(C)(=O)=O)n1`, for which the cell number change was -3.56%. For the same compound, the AC50 under setting [1] was 0.092 µM [rising, single point].

Take `COc1ccccc1NC(=O)CSc1nnc(COc2ccc(Cl)cc2)n1Cc1ccco1`: the cell number change was -2.39%. Moreover, the AC50 under setting [2] is 29.1 µM [rising, single point].

On to `CCN(C(=O)c1cccs1)c1nc(-c2ccc(OC)cc2)cs1`, for which the cell number change is 39.5%. Moreover, under setting [1], the AC50 was 4.61 µM [rising, full curve, poor fit].

For the compound `CCOC(=O)CSC1=C(C#N)C(c2sccc2C)C(C(C)=O)=C(C)N1` (stereo unspecified), the cell number change was determined as 29.8%. For the same compound, under setting [2], the AC50 was 1.46 µM [rising, full curve, poor fit].
